Measured values reported in paper PMC10897178, “FANCJ DNA helicase is recruited to the replisome by AND-1 to ensure genome stability” (EMBO Reports, 2024).
Results are given in words; binding and its absence hold for the method and conditions named. Tags and fused reporters may be left off the sequences shown.

Target: T1, Flag-tagged DDX11 (human) (UniProt Q96FC9)
T1 sequence: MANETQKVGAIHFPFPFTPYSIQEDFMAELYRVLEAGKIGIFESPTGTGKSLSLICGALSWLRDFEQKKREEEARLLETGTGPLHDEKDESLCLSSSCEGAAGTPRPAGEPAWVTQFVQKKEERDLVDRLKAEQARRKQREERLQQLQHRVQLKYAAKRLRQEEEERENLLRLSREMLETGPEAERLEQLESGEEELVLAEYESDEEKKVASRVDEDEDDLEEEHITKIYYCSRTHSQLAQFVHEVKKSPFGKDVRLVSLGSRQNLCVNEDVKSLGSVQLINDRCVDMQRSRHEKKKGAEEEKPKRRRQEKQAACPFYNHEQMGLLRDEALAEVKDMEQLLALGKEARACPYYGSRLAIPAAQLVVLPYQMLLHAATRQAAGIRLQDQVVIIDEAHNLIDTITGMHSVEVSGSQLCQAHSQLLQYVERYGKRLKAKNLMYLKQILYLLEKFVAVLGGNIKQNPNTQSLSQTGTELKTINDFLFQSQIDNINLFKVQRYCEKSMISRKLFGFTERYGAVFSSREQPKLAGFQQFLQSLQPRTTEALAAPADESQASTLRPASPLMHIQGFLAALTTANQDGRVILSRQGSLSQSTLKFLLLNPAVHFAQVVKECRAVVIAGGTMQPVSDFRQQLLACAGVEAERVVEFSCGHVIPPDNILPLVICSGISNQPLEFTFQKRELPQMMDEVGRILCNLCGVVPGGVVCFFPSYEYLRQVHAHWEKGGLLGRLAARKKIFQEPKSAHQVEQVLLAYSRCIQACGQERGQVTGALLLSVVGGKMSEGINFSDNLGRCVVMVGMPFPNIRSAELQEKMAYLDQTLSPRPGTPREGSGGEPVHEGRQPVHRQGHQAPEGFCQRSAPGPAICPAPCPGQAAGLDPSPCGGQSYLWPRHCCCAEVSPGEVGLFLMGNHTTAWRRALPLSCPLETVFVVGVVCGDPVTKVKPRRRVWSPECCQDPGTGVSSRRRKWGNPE
Test: pull-down; Flag-tagged protein (2 µg) on anti-Flag M2 agarose beads, purified AND-1 SepB (4 µg) added; 20 mM HEPES-NaOH pH 7.2, 150 mM NaCl, 0.1% Igepal, 1% BSA, 4 °C; Western blot; both purified

binding: no binding (tested: 4 µg SepB)
B1: 6xHis-tagged AND-1 SepB (domain or fragment, human, UniProt O75717 336-826, looked up)
chain: GDFLNDNAVEIPSFSKGIINDDEDDEDLMMASGRPRQRSHILEDDENSVDISMLKTGSSLLKEEEEDGQEGSIHNLPLVTSQRPFYDGPMPTPRQKPFQSGSTPLHLTHRFMVWNSIGIIRCYNDEQDNAIDVEFHDTSIHHATHLSNTLNYTIADLSHEAILLACESTDELASKLHCLHFSSWDSSKEWIIDLPQNEDIEAICLGQGWAAAATSALLLRLFTIGGVQKEVFSLAGPVVSMAGHGEQLFIVYHRGTGFDGDQCLGVQLLELGKKKKQILHGDPLPLTRKSYLAWIGFSAEGTPCYVDSEGIVRMLNRGLGNTWTPICNTREHCKGKSDHYWVVGIHENPQQLRCIPCKGSRFPPTLPRPAVAILSFKLPYCQIATEKGQMEEQFWRSVIFHNHLDYLAKNGYEYEESTKNQATKEQQELLMKMLALSCKLEREFRCVELADLMTQNAVNLAIKYASRSRKLILAQKLSELAVEKAAELTAT
notes: AND-1 (WDHD1), human, SepB domain, amino-acid residues 336-826; pRSF-Duet-1 construct from Luca Pellegrini; purification as in Kilkenny et al, 2017; also called 6xHis-SepB; AND-1 SepB domain; source: E. coli BL21 (DE3), purified
